Consider two molecules from article PMC7817834.

No constants are given. Whether binding was seen depends on the method and setting. Binding seen in cells or lysates may run through a third protein. Some results given as binding are weak or reduced against the parent protein; the word gives no strength. For some assays here: Tags and fused reporters may be left off the sequences shown.

Test [1] concerns the target T1, KIAA1199 (human (endogenous in RA FLS)) (UniProt Q8WUJ3).
T1 sequence: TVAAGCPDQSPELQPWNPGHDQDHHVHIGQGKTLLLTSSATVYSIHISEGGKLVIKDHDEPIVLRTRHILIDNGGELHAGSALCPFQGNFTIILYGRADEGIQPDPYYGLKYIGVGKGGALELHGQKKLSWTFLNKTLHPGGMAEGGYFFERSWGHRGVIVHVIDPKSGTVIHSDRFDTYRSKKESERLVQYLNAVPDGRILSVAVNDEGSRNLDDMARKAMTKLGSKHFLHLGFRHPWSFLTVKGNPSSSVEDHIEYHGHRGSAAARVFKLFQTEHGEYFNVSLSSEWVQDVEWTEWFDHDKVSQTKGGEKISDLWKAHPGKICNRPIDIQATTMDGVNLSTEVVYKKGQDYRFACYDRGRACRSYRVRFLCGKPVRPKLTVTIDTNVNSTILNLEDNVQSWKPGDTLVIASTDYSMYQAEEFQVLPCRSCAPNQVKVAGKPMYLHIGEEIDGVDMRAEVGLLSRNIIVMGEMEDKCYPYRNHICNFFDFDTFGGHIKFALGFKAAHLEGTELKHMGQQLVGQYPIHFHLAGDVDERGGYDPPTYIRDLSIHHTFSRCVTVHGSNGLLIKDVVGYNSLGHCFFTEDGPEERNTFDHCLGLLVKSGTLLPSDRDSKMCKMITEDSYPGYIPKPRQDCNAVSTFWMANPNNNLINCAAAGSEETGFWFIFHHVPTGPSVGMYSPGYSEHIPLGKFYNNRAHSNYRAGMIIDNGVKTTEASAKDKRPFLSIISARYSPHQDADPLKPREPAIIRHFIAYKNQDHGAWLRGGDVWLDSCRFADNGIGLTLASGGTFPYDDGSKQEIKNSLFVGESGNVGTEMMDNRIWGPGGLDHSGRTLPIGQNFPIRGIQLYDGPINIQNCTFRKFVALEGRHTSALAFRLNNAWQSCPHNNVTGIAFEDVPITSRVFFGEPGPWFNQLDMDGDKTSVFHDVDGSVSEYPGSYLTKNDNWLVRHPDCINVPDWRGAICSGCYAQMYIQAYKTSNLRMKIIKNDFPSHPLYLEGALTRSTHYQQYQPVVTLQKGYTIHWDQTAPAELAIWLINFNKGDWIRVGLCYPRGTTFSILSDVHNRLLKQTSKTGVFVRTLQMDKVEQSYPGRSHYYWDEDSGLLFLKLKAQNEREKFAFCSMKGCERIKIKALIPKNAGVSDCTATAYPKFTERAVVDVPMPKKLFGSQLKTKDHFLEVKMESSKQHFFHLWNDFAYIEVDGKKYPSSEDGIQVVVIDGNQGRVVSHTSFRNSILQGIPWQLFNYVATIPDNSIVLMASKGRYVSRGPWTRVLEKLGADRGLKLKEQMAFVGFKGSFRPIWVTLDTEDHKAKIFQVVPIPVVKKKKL
Description: co-IP; RA FLS whole-cell lysates (RIPA buffer with protease inhibitors and 1% NP-40) incubated with anti-KIAA1199 mAb and anti-ANXA1 mAb, respectively; Protein A/G agarose beads; western blotting. (In general: Immunoblotting shows a protein as a band on a membrane.)

Test [2] concerns the target T2, ANXA1 (stably expressed in ANXA1/293T cells) (human) (UniProt P04083).
T2 sequence: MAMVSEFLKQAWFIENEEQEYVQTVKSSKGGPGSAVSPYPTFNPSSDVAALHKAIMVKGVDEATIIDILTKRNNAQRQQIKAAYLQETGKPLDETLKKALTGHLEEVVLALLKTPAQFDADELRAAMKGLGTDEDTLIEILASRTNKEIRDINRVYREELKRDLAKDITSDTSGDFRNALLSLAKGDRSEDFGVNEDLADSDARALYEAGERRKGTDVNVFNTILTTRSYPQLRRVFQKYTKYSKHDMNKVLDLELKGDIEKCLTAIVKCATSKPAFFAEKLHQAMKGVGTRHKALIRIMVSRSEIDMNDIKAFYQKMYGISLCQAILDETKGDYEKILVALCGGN
The test can be described thus: co-IP; lysates of ANXA1/293T cells transfected with full-length or domain-deleted KIAA1199-FLAG, incubated with anti-FLAG and anti-ANXA1 antibody, respectively; Protein A/G agarose beads; western blotting.

B1: ANXA1 (protein, UniProt P04083 1-346)
chain: MAMVSEFLKQAWFIENEEQEYVQTVKSSKGGPGSAVSPYPTFNPSSDVAALHKAIMVKGVDEATIIDILTKRNNAQRQQIKAAYLQETGKPLDETLKKALTGHLEEVVLALLKTPAQFDADELRAAMKGLGTDEDTLIEILASRTNKEIRDINRVYREELKRDLAKDITSDTSGDFRNALLSLAKGDRSEDFGVNEDLADSDARALYEAGERRKGTDVNVFNTILTTRSYPQLRRVFQKYTKYSKHDMNKVLDLELKGDIEKCLTAIVKCATSKPAFFAEKLHQAMKGVGTRHKALIRIMVSRSEIDMNDIKAFYQKMYGISLCQAILDETKGDYEKILVALCGGN
With B1, the binding entry in test [1] is “binds”.

B2: WT-KIAA1199 (full-length, C-terminal FLAG) (protein, UniProt Q8WUJ3 31-1361)
chain: TVAAGCPDQSPELQPWNPGHDQDHHVHIGQGKTLLLTSSATVYSIHISEGGKLVIKDHDEPIVLRTRHILIDNGGELHAGSALCPFQGNFTIILYGRADEGIQPDPYYGLKYIGVGKGGALELHGQKKLSWTFLNKTLHPGGMAEGGYFFERSWGHRGVIVHVIDPKSGTVIHSDRFDTYRSKKESERLVQYLNAVPDGRILSVAVNDEGSRNLDDMARKAMTKLGSKHFLHLGFRHPWSFLTVKGNPSSSVEDHIEYHGHRGSAAARVFKLFQTEHGEYFNVSLSSEWVQDVEWTEWFDHDKVSQTKGGEKISDLWKAHPGKICNRPIDIQATTMDGVNLSTEVVYKKGQDYRFACYDRGRACRSYRVRFLCGKPVRPKLTVTIDTNVNSTILNLEDNVQSWKPGDTLVIASTDYSMYQAEEFQVLPCRSCAPNQVKVAGKPMYLHIGEEIDGVDMRAEVGLLSRNIIVMGEMEDKCYPYRNHICNFFDFDTFGGHIKFALGFKAAHLEGTELKHMGQQLVGQYPIHFHLAGDVDERGGYDPPTYIRDLSIHHTFSRCVTVHGSNGLLIKDVVGYNSLGHCFFTEDGPEERNTFDHCLGLLVKSGTLLPSDRDSKMCKMITEDSYPGYIPKPRQDCNAVSTFWMANPNNNLINCAAAGSEETGFWFIFHHVPTGPSVGMYSPGYSEHIPLGKFYNNRAHSNYRAGMIIDNGVKTTEASAKDKRPFLSIISARYSPHQDADPLKPREPAIIRHFIAYKNQDHGAWLRGGDVWLDSCRFADNGIGLTLASGGTFPYDDGSKQEIKNSLFVGESGNVGTEMMDNRIWGPGGLDHSGRTLPIGQNFPIRGIQLYDGPINIQNCTFRKFVALEGRHTSALAFRLNNAWQSCPHNNVTGIAFEDVPITSRVFFGEPGPWFNQLDMDGDKTSVFHDVDGSVSEYPGSYLTKNDNWLVRHPDCINVPDWRGAICSGCYAQMYIQAYKTSNLRMKIIKNDFPSHPLYLEGALTRSTHYQQYQPVVTLQKGYTIHWDQTAPAELAIWLINFNKGDWIRVGLCYPRGTTFSILSDVHNRLLKQTSKTGVFVRTLQMDKVEQSYPGRSHYYWDEDSGLLFLKLKAQNEREKFAFCSMKGCERIKIKALIPKNAGVSDCTATAYPKFTERAVVDVPMPKKLFGSQLKTKDHFLEVKMESSKQHFFHLWNDFAYIEVDGKKYPSSEDGIQVVVIDGNQGRVVSHTSFRNSILQGIPWQLFNYVATIPDNSIVLMASKGRYVSRGPWTRVLEKLGADRGLKLKEQMAFVGFKGSFRPIWVTLDTEDHKAKIFQVVPIPVVKKKKL
Regarding B2, the binding entry in test [2] was “binds”.
